This assay addresses CXC chemokine receptor type 4 (CXCR4) (human) (UniProt P61073). Kind of assay: antibody competition assay (FIG. 8B).

Sequences of proteins named here, by UniProt entry; tags and fusion partners are left off.
UniProt P61073: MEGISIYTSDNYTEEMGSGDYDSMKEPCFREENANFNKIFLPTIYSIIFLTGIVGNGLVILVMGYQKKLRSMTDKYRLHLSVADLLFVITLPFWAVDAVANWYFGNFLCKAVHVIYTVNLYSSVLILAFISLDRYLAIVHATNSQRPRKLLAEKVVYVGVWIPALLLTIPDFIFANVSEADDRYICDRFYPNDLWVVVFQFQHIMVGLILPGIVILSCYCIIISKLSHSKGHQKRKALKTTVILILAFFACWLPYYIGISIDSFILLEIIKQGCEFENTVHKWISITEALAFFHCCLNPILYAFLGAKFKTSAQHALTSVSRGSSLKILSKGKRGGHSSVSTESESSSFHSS

Results are given in words; binding and its absence hold for the method and conditions named. Some entries that bind do so weakly or less than the wild type.

B1: SC069 (peptide)
peptide: ILRWSRKLPCVS
modifications: two peptide copies on one end, coupled to DSPE via PEG
For B1, the binding result is “binds”.

B2: SC001 (peptide)
peptide: ILRWSRKLPCVS
modifications: coupled to DSPE via PEG
As for B2, the binding entry is listed as “binds”.

These data come from patent publication US20230131339A1, “EPI-X4 BASED PEPTIDES AND DERIVATIVES THEREOF” (Universitaet Ulm, priority 2020, published 2023).
